First the molecules themselves.
T1: Phosphoinositide-3-kinase (PI3K)-interacting protein 1 (PIK3IP1) (rat (endogenous in H9c2)) (UniProt Q56A20)
T1 sequence: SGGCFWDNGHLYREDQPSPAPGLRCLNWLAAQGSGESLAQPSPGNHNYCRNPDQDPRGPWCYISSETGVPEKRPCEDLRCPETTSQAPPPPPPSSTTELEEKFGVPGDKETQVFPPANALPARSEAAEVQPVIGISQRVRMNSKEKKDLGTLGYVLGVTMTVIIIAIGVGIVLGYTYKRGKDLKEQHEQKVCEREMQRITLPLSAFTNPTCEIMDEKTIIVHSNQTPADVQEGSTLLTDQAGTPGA

Sequences of proteins named here, by UniProt entry; tags and fusion partners are left off.
UniProt A0A0G2K344: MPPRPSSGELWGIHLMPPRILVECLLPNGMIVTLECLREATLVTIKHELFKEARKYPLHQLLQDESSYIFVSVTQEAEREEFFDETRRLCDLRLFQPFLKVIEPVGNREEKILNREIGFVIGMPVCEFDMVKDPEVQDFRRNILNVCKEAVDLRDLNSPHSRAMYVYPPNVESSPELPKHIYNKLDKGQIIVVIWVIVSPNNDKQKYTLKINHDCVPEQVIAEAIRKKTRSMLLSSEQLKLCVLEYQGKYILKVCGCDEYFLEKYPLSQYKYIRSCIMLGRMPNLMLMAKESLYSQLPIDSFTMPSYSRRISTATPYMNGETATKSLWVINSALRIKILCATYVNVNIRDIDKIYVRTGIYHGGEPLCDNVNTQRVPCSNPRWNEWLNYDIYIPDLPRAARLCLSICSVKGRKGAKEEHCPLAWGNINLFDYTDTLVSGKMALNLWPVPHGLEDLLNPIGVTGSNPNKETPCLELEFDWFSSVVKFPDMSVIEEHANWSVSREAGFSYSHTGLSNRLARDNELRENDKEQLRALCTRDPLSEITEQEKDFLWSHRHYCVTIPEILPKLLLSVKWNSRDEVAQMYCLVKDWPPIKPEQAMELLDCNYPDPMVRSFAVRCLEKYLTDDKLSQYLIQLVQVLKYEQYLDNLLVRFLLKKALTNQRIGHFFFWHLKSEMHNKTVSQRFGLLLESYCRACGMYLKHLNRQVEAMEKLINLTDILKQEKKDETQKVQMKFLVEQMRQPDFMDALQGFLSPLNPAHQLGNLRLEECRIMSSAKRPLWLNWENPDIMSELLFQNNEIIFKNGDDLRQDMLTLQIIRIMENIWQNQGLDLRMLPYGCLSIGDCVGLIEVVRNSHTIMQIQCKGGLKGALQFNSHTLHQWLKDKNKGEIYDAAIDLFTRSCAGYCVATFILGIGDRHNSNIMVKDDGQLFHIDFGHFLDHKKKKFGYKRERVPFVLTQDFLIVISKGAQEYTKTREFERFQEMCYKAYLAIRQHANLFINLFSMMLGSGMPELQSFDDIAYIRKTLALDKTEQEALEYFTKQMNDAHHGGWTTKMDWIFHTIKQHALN

B1: endothelin B receptor (ETB) (receptor, UniProt P21451 27-442)
chain: EKRGFPPAQATPSLLGTKEVMTPPTKTSWTRGSNSSLMRSSAPAEVTKGGRVAGVPPRSFPPPCQRKIEINKTFKYINTIVSCLVFVLGIIGNSTLLRIIYKNKCMRNGPNILIASLALGDLLHIIIDIPINAYKLLAGDWPFGAEMCKLVPFIQKASVGITVLSLCALSIDRYRAVASWSRIKGIGVPKWTAVEIVLIWVVSVVLAVPEAIGFDVITSDYKGKPLRVCMLNPFQKTAFMQFYKTAKDWWLFSFYFCLPLAITAIFYTLMTCEMLRKKSGMQIALNDHLKQRREVAKTVFCLVLVFALCWLPLHLSRILKLTLYDQSNPQRCELLSFLLVLDYIGINMASLNSCINPIALYLVSKRFKNCFKSCLCCWCQTFEEKQSLEEKQSCLKFKANDHGYDNFRSSNKYSSS
B2: endothelin A receptor (ETA) (receptor, UniProt P26684 21-426)
chain: DNAERYSANLSSHVEDFTPFPGTEFNFLGTTLQPPNLALPSNGSMHGYCPQQTKITTAFKYINTVISCTIFIVGMVGNATLLRIIYQNKCMRNGPNALIASLALGDLIYVVIDLPINVFKLLAGRWPFDHNDFGVFLCKLFPFLQKSSVGITVLNLCALSVDRYRAVASWSRVQGIGIPLITAIEIVSIWILSFILAIPEAIGFVMVPFEYKGEQHRTCMLNATTKFMEFYQDVKDWWLFGFYFCMPLVCTAIFYTLMTCEMLNRRNGSLRIALSEHLKQRREVAKTVFCLVVIFALCWFPLHLSRILKKTVYDEMDKNRCELLSFLLLMDYIGINLATMNSCINPIALYFVSKKFKNCFQSCLCCCCHQSKSLMTSVPMNGTSIQWKNQEQNHNTERSSHKDSMN

No constants are given. Whether binding was seen depends on the method and setting. Binding seen in cells or lysates may run through a third protein. Some results given as binding are weak or reduced against the parent protein; the word gives no strength.

The target of this experiment is T1, Phosphoinositide-3-kinase (PI3K)-interacting protein 1 (PIK3IP1) (rat (endogenous in H9c2)). Nature of the experiment: co-IP; H9c2 cells lysed in NP-40 buffer with protease inhibitors; Dynabeads protein G with 10 μL of antibodies or rabbit IgG (mock IP); eluted proteins detected by Western blotting. Background: In western blotting, separated proteins are transferred to a membrane and probed.
“p110α (catalytic subunit of PI3Kα) (from UniProt A0A0G2K344 1-1068)”: the binding entry is reported as “binds”. The same measure for B1: “no binding”; for B2: “binds”.

Values taken from paper PMC9322903.
